# Reference: the supplement of paper PMC12872613
# Some of the results follow. No stated cut-off is given here; in the data, active = 0.7 or more and inactive = the rest. Many values rest on one well or one pass, so single values are uncertain.
# System: MiaPaCa-2 CLSA-25
# Assay: cell death relative to DMSO vehicle (fraction); higher = more cytotoxic
# Conditions: 5 µM; treatment time 48 h; medium cystine 25 µM
row,Structure (SMILES),cell death
1,C[C@@H]1C[C@H]2[C@@H]3CCC4=CC(=O)C=C[C@]4(C)[C@@]3(F)[C@@H](O)C[C@]2(C)[C@@]1(O)C(=O)CO [Dexamethasone],inactive: 0.0965
2,Cc1cc(C)nc(NC(=S)N2CCN(Cc3ccc(C(F)(F)F)cc3)CC2)c1,inactive: 0.0797
3,CCc1ccc(N(CC(C)C)S(=O)(=O)c2ccc(OCC3CCOCC3)c(CO)c2)cc1,active: 0.797
4,CC(C)C(=O)OCC(=O)[C@@]12O[C@H](C3CCCCC3)O[C@@H]1C[C@H]1[C@@H]3CCC4=CC(=O)C=C[C@]4(C)[C@H]3[C@@H](O)C[C@@]12C [Ciclesonide],inactive: 0.157
